These are yes or no findings as the source states them, for the method shown. Some binding calls cover weakened binding; strength is not graded here.
B1: TP-2G6 (Fab, V domains shown)
VH: QVQLQQSGPGLVKPSQTLSLTCAISGDSVSSSSAAWSWIRQSPGRGLEWLGIIYYRSKWYNDYAVSVKSRITINPDTSKNQFSLQLNSVTPEDTAVYYCARHSMVGFDVWGQGTLVTVSS
VL: DIVLTQSPATLSLSPGERATLSCRASQYVTSSYLAWYQQKPGQAPRLLIYGSSRATGVPARFSGSGSGTDFTLTISSLEPEDFATYYCQQYSSSPITFGQGTKVEIKR
B2: TP-4A9 (Fab, V domains shown)
VH: QVQLVESGGGLVQPGGSLRLSCAASGFTFSSYGMSWVRQAPGKGLEWVSLISGVSSSTYYADSVKGRFTISRDNSKNTLYLQMNSLRAEDTAVYYCARSYLGYFDVWGQGTLVTVSS
VL: DIELTQPPSVSVAPGQTARISCSGDALGKYYASWYQQKPGQAPVLVIYGDNKRPSGIPERFSGSNSGNTATLTISGTQAEDEADYYCQSYTTRSLVFGGGTKLTVLG
B3: TP-4E8 (Fab, V domains shown)
VH: QVQLVESGGGLVQPGGSLRLSCAASGFTFNDYAMSWVRQAPGKGLEWVSLIESVSSSTYYADSVKGRFTISRDNSKNTLYLQMNSLRAEDTAVYYCARTIGVLWDDVWGQGTLVTVSS
VL: DIELTQPPSVSVAPGQTARISCSGDALGSKYVSWYQQKPGQAPVLVIYGDNKRPSGIPERFSGSNSGNTATLTISGTQAEDEADYYCQSYTYSLNQVFGGGTKLTVLG
B4: TP-4G8 (Fab, V domains shown)
VH: QVQLVESGGGLVQPGGSLRLSCAASGFTFSTYAMHWVRQAPGKGLEWVSTISGYGSFTYYADSVKGRFTISRDNSKNTLYLQMNSLRAEDTAVYYCARNGRKYGQMDNWGQGTLVTVSS
VL: DIELTQPPSVSVAPGQTARISCSGDKLGSKSVHWYQQKPGQAPVLVIYRDTDRPSGIPERFSGSNSGNTATLTISGTQAEDEADYYCQTYDYILNVFGGGTKLTVLG
B5: TP-4H8 (Fab, V domains shown)
VH: QVQLVESGGGLVQPGGSLRLSCAASGFTFSDHAMHWVRQAPGKGLEWVSVIEYSGSKTNYADSVKGRFTISRDNSKNTLYLQMNSLRAEDTAVYYCARGDYYPYLVFAIWGQGTLVTVSS
VL: DIELTQPPSVSVAPGQTARISCSGDSIGKKYVHWYQQKPGQAPVLVIYGDNNRPSGIPERFSGSNSGNTATLTISGTQAEDEADYYCSTADSVITYKNVFGGGTKLTVLG

By UniProt entry, the sequences of proteins in these tests, tags left out. Residues count along the entry.
UniProt P10646, residues 29-304: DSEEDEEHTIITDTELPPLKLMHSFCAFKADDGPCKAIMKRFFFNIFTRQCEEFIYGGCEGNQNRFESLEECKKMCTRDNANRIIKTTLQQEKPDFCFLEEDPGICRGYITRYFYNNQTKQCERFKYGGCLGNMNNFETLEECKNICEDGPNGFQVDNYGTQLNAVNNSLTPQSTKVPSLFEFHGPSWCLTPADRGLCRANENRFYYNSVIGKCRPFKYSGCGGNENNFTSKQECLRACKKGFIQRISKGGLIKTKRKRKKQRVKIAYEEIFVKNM

molecular target: ヒト組織因子経路インヒビター (human TFPI) (human) (UniProt P10646); experiment: ELISA, Fab in bacterial lysate on human TFPI-coated plate

Row | Binder | binding
1 | B1 | binds
2 | B2 | binds
3 | B3 | binds
4 | B4 | binds
5 | B5 | binds

Reference: patent JP2016028048A
